According to the supplement of paper PMC12067093, “Discovery and optimisation of a covalent ligand for TRIM25 and its application to targeted protein ubiquitination” (Chemical Science, 2025):
This is one part of the list.

The chains behind the UniProt entries cited, without tags or fusion partners. Where a name states a change or a piece, a line headed by the entry shows the natural chain unless it says otherwise.
UniProt O43242, whole entry, looked up: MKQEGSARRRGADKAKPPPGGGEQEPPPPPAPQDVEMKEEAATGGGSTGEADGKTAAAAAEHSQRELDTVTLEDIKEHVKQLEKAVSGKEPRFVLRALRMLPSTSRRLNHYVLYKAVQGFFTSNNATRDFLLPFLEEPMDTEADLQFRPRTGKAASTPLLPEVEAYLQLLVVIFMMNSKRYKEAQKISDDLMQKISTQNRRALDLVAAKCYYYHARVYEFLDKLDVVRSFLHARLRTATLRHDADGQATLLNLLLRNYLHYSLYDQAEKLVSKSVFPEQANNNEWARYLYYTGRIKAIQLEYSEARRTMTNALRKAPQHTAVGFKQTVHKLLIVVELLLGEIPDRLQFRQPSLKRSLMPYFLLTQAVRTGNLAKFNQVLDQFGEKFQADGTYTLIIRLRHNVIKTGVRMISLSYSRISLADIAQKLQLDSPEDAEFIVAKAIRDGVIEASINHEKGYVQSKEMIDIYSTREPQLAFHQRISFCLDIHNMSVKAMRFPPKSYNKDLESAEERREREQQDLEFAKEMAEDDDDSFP
UniProt Q9UNM6: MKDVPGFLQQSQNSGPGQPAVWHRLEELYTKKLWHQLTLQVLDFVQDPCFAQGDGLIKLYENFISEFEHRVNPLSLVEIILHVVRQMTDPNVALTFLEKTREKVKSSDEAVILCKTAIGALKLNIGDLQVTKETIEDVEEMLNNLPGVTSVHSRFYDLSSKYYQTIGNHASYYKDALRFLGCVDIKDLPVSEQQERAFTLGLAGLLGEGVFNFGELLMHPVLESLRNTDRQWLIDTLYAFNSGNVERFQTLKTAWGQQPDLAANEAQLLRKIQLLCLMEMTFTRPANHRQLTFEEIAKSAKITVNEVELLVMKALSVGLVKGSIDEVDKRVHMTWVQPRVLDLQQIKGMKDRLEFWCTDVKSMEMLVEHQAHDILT
UniProt P29350: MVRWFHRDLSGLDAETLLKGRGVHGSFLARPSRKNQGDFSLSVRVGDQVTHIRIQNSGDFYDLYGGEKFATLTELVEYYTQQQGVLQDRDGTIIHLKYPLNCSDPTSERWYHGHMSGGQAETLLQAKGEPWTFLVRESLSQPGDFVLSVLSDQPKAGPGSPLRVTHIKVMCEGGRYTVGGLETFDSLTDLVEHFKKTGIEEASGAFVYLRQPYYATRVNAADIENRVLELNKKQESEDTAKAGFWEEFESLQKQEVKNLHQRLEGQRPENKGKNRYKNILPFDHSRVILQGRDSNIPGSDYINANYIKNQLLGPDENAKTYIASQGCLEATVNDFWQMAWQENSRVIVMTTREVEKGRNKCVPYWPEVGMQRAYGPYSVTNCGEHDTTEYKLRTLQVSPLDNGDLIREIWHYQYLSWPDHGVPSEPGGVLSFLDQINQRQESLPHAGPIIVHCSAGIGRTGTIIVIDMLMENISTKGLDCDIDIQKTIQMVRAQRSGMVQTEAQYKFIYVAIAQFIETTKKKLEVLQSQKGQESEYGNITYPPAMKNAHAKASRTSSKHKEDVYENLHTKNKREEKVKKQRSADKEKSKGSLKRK
UniProt P18031: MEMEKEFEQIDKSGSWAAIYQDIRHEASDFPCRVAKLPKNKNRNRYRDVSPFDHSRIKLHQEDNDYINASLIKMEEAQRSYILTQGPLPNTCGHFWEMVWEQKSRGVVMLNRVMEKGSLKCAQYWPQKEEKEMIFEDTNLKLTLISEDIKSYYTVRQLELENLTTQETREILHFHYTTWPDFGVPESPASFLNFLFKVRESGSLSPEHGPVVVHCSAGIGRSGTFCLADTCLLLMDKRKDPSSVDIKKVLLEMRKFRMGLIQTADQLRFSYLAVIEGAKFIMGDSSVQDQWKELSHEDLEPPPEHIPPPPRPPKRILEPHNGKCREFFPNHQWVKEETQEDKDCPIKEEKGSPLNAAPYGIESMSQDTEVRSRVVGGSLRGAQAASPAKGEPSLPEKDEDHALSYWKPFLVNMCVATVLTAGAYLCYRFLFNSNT
UniProt Q8N8N7: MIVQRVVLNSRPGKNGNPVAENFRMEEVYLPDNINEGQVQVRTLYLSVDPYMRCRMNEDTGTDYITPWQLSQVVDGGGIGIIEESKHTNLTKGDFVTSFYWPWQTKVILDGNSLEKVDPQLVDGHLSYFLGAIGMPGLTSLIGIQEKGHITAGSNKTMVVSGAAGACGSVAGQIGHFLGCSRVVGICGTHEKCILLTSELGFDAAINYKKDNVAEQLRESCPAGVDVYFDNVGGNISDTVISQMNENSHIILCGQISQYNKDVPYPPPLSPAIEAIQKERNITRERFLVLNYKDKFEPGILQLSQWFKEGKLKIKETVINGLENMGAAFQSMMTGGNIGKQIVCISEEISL
UniProt P78330: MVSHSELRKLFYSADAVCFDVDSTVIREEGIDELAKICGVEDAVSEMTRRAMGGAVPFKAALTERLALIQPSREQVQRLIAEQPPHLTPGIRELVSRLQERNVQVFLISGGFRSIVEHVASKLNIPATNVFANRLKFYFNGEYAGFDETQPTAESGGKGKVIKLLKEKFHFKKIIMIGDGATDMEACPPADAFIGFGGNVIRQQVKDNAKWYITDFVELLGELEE
UniProt Q8NDX1: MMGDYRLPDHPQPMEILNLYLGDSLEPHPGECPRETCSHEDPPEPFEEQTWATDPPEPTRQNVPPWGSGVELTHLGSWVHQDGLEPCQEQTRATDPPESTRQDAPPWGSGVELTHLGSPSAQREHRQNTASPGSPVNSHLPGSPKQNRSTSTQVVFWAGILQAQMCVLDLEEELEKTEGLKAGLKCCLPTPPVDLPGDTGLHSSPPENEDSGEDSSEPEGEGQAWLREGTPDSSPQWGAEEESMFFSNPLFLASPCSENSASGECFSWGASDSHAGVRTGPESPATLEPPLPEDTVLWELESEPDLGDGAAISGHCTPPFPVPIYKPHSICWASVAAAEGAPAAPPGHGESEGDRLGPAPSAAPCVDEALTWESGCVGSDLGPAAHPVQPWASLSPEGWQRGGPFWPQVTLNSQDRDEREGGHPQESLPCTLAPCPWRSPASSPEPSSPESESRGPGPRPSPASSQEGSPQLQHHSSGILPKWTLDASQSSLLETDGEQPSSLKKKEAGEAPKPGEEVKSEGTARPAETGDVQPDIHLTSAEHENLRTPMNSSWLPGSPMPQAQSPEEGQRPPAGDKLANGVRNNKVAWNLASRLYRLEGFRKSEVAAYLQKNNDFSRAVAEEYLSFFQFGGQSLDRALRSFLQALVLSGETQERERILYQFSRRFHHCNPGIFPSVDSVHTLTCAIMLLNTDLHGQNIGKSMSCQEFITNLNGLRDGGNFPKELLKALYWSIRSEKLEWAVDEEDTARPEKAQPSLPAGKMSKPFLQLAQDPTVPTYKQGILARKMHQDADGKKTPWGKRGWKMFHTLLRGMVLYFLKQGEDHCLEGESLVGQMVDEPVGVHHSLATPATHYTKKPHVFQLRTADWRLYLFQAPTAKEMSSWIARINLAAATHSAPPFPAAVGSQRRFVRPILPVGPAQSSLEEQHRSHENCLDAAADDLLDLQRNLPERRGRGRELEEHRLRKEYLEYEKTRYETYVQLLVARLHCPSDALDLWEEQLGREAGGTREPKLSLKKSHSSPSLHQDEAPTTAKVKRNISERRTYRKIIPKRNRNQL
UniProt Q13332: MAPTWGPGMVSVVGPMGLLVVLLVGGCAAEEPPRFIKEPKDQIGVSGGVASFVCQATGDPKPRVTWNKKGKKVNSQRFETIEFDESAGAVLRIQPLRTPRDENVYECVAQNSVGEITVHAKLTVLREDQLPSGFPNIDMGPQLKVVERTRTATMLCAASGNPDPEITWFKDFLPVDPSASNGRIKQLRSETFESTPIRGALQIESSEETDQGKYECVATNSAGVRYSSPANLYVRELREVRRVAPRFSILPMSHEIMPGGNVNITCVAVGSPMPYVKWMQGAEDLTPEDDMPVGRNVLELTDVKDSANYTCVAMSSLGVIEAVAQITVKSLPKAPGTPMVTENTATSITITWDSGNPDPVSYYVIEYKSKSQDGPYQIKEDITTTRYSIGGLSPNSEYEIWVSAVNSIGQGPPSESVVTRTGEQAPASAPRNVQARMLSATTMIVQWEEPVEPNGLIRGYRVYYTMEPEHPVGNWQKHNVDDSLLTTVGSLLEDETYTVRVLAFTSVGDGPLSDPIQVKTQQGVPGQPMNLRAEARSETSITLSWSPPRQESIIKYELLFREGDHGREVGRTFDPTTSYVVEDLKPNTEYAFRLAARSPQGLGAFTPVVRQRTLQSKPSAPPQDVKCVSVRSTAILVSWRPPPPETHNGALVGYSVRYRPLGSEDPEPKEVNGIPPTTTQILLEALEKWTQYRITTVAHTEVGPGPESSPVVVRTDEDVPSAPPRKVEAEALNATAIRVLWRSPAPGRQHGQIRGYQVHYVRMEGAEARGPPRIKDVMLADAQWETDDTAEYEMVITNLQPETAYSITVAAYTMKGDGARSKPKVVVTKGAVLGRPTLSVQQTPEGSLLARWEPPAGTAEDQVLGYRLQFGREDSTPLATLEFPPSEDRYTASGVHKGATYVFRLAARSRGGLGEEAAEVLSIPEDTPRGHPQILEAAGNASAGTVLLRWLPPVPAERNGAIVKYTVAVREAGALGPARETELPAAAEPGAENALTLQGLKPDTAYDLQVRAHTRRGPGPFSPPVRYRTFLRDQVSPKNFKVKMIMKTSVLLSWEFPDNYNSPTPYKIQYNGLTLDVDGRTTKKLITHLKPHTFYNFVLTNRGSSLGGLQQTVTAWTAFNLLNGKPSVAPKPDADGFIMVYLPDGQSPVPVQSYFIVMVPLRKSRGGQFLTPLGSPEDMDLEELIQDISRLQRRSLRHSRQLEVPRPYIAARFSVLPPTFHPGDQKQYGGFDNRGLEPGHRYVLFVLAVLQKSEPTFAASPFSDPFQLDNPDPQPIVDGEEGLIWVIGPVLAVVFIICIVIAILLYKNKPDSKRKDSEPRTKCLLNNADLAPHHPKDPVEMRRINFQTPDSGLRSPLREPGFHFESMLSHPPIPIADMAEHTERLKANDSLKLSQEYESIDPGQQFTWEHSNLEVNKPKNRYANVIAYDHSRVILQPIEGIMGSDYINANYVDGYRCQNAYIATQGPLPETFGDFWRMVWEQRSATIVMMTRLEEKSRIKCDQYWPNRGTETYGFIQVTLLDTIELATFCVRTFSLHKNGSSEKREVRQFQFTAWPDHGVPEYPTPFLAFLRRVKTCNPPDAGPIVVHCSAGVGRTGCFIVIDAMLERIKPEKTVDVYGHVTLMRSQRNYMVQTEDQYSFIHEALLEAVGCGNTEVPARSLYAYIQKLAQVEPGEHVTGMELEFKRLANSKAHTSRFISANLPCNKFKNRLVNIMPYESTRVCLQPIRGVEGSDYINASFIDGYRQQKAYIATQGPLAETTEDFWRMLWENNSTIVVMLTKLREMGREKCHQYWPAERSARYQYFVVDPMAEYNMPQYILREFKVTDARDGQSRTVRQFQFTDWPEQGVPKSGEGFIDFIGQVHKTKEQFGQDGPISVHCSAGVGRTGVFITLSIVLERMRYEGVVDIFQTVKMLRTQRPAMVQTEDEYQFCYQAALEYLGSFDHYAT
UniProt Q9P2B2: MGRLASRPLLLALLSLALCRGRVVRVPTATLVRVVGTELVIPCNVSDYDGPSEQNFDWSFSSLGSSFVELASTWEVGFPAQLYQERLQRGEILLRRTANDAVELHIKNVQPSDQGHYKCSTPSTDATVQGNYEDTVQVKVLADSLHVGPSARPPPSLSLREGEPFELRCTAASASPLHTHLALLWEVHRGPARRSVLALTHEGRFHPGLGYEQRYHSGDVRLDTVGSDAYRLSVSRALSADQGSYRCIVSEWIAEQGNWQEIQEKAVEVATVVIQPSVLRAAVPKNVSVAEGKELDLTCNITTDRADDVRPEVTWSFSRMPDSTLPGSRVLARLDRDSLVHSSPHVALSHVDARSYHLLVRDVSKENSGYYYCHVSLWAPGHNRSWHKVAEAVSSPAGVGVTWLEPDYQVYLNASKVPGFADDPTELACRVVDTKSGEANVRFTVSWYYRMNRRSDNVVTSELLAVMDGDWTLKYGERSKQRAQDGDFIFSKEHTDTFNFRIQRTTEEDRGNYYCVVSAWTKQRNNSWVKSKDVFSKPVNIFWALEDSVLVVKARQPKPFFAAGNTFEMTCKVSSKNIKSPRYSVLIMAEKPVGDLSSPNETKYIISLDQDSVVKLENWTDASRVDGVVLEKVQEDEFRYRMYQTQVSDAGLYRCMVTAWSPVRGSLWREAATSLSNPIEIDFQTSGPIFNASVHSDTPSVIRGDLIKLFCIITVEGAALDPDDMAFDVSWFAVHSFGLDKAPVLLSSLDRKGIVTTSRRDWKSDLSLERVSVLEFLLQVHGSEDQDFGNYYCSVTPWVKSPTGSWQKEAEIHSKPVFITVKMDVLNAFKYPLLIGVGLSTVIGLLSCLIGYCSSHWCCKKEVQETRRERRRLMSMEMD

Compound: CC1Cc2ccccc2N1C(=O)C1CCCN(C1)C(=O)CCl (mixture of isomers) [TRIM25 ligand 11 (diastereomer mixture)]
Assay: probe-labelled cysteine peptide fold change vs DMSO (competition) (log2 fold change); higher = less target engagement (more negative = stronger competition)
Conditions: THP-1, incubation time: 4 h
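Also: competitive chemoproteomic profiling in live THP-1 cells with an iodoacetamide desthiobiotin (IA-DTB) probe, comparing probe-labelled peptide intensities in compound-treated cells against DMSO-treated controls.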

| Target | probe-labelled cysteine peptide fold change (10 µM) | probe-labelled cysteine peptide fold change (50 µM) |
| --- | --- | --- |
| PSMD3_O43242_483_ISFCLDIHNMSVK (UniProt O43242) | -0.196 | -0.103 |
| PSMD13_Q9UNM6_276_KIQLLCLMEMTFTR (UniProt Q9UNM6) | -0.226 | 0.282 |
| PTPN6_P29350_382_AYGPYSVTNCGEHDTTEYK (UniProt P29350) | 0.0863 | -0.0754 |
| PTPN1_P18031_231_SGTFCLADTCLLLMDK (UniProt P18031) | 0.0706 | 0.029 |
| PTGR2_Q8N8N7_187_VVGICGTHEK (UniProt Q8N8N7) | 0.0779 | 0.17 |
| PSPH_P78330_38_ICGVEDAVSEMTR (UniProt P78330) | 0.194 | -0.00278 |
| PSD4_Q8NDX1_705_SMSCQEFITNLNGLR (UniProt Q8NDX1) | -0.0398 | -0.0629 |
| PTPRS_Q13332_107_DENVYECVAQNSVGEITVHAK (UniProt Q13332) | 0.541 | 0.334 |
| PSMD9_O00233_59_GIGMNEPLVDCEGYPR (UniProt O00233) | -0.158 | -0.401 |
| PSMD3_O43242_210_CYYYHAR (UniProt O43242) | 0.202 | 0.387 |
| PTPN12_Q05209_343_SCLVEGDAK (UniProt Q05209) | 0.155 | -0.0495 |
| PTK2B_Q14289_677_FTELVCSLSDVYQMEK (UniProt Q14289) | 0.0957 | -0.0463 |
| PSMD6_Q15008_266_QYLFSLYECR (UniProt Q15008) | 0.307 | 0.161 |
| PSMC1_P62191_58_LPLVTPHTQCR (UniProt P62191) | 0.0658 | 0.105 |
| PTGFRN_Q9P2B2_571_PFFAAGNTFEMTCK (UniProt Q9P2B2) | -0.22 | -0.0941 |

Complete entries as entered above. Values in the order: probe-labelled cysteine peptide fold change (10 µM)	probe-labelled cysteine peptide fold change (50 µM)
PSMD3_O43242_210_CYYYHAR (UniProt O43242) is listed as 0.202	0.387
PTPN1_P18031_231_SGTFCLADTCLLLMDK (UniProt P18031) is listed as 0.0706	0.029
